Data on two substances can be found in PMC12611769, “Phase-separated NDF−FACT condensates facilitate transcription elongation on chromatin” (Nature Cell Biology, 2025).

Sequences of proteins named here, by UniProt entry; tags and fusion partners are left off.
UniProt Q08945: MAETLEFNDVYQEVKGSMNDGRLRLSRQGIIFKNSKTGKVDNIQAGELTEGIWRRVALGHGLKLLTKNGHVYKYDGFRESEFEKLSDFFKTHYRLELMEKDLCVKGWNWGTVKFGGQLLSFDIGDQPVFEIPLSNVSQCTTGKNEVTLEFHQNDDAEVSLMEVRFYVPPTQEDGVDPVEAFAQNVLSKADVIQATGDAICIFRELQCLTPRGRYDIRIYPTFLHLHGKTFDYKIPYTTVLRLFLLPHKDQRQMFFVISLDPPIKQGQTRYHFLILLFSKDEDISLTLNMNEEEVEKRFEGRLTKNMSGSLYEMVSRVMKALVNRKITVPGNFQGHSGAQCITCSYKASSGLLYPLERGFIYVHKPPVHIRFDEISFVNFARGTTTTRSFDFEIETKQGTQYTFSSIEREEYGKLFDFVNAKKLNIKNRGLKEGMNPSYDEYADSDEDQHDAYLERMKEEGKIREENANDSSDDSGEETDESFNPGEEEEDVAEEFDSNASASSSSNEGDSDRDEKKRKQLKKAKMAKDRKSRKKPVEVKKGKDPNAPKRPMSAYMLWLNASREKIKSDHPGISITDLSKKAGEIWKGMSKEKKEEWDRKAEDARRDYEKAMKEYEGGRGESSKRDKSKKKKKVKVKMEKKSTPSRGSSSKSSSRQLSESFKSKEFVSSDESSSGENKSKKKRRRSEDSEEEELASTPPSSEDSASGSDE
UniProt Q9Y5B9: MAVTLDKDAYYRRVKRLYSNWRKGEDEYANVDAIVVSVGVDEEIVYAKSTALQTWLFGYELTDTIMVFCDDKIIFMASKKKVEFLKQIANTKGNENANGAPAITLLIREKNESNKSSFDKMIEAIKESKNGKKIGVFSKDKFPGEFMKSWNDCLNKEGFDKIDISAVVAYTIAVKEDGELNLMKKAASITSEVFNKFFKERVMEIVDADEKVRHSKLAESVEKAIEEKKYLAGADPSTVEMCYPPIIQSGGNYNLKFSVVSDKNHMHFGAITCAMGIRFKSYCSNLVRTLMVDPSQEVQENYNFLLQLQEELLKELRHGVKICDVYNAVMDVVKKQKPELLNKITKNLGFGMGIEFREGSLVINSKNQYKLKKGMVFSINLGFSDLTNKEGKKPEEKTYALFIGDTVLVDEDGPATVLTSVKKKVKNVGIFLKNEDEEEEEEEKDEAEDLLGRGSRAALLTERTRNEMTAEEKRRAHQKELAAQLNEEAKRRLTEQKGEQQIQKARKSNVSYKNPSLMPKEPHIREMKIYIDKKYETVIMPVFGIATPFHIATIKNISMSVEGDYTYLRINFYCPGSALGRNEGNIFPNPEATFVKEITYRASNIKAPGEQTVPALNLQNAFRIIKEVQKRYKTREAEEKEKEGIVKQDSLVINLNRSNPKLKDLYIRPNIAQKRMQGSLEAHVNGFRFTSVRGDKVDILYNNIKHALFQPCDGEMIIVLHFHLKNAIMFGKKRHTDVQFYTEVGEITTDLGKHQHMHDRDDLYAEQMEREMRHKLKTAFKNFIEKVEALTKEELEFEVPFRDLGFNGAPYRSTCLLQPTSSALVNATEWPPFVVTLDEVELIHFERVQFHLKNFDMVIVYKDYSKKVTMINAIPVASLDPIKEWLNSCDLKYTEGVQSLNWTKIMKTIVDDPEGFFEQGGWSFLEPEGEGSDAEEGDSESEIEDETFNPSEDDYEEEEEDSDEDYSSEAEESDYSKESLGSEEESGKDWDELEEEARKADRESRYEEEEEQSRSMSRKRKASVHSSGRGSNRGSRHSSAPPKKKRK

This experiment concerns the target T1, hNDF-Flag-GFP (human nucleosome destabilizing factor, GFP- and Flag-tagged) (human) (UniProt Q49A26).
T1 sequence: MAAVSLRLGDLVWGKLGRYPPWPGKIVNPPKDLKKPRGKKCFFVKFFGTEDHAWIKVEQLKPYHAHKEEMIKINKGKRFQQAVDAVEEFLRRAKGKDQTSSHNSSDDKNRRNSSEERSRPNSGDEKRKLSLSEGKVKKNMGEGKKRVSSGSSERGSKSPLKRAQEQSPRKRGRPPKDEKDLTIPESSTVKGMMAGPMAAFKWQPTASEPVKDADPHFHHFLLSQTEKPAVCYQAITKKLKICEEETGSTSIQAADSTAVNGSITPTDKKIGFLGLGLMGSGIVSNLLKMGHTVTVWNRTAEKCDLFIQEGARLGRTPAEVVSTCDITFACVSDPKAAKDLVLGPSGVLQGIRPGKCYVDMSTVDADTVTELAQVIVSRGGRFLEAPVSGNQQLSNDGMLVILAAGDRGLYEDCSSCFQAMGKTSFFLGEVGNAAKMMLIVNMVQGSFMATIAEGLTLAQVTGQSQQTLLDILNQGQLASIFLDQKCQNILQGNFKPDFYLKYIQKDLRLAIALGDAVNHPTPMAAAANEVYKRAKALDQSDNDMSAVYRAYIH
In words: affinity purification with mass spectrometry; tandem affinity purification (Flag M2 agarose, Flag peptide elution, then GFP-Trap beads) of NDF-Flag-GFP from sonicated HeLa lysate in NETN buffer (20 mM Tris-HCl pH 8.0, 100 mM NaCl, 0.5% Nonidet P-40), 4 °C.

No constants are given. Whether binding was seen depends on the method and setting. Binding seen in cells or lysates may run through a third protein. These calls come from enrichment with a bait or labelling near it, and not all partners need be listed. Tags and fused reporters may be left off the sequences shown.

In the case of “SSRP1, subunit of the human FACT complex, endogenous (from UniProt Q08945 1-709)”, the binding entry was “binds”.

With “Spt16 (SUPT16H), subunit of the human FACT complex, endogenous (from UniProt Q9Y5B9 1-1047)”, the binding result is “binds”.
